Construct, isoform or probe ends are uncertain for at least one entry. A weaker result is weaker than the reference pair of the same experiment. Where only a bound is given, the exact number is not on record here.

Chains of the proteins cited; added tags and fusions are not shown. Residues count along the entry.
UniProt O75417, 1-894: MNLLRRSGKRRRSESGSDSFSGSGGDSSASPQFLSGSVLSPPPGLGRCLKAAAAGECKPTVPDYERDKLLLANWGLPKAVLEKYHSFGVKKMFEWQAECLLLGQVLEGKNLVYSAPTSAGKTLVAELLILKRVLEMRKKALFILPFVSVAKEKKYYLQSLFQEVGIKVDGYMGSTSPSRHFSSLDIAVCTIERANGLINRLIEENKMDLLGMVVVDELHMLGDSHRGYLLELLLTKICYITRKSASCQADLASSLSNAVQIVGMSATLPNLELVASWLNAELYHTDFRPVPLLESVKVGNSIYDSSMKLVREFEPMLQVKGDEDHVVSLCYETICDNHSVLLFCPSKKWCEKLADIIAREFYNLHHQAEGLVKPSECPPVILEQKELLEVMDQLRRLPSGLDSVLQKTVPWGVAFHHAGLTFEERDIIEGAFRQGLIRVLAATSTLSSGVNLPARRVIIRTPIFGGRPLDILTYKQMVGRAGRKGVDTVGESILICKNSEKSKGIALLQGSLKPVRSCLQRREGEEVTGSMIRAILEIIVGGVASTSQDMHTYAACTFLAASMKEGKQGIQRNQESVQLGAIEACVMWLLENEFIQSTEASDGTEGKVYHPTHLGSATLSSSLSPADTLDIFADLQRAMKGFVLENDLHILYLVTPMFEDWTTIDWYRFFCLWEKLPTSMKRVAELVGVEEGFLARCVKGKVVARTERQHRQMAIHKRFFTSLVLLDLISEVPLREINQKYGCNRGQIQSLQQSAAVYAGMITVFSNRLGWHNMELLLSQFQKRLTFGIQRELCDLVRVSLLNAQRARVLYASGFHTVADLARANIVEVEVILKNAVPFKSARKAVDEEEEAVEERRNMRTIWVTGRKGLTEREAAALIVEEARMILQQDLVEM

Experimental findings from article PMC9023281 are described below.

In this data set the target is PARylated Polθ-h (UniProt O75417). Put plainly: EMSA. Conditions: Imaging Buffer: 40 mM Tris-HCl pH 8.0, 50 mM NaCl, 2 mM MgCl2, 1 mM DTT, 0.2 mg/ml BSA, 1 mM ATP, EMSA at room temperature, single-molecule at 37 C, recombinant protein, residues 1-894, single-stranded DNA. For orientation: In EMSA bound probe runs differently from free probe, usually more slowly.

“TTTTTTTTTTTTTTTTTTTTTTTTTTTTTTTTTTTTTTTTTTTTTTTTTT [dT50 (Poly-T50)]”: for the setting “256 nM prebound Polθ-h, then 25 nM PARP-1 and 4.5 mM NAD+, rapid release”, the binding result was “binds more weakly”. For the same sequence, the Kd – broadly, the constant that tells how readily two partners part at equilibrium – (pre-incubated with PARP-1 and NAD+, at least ten-fold lower affinity) was above 370 nM.
